{"sequences": {"note": "By UniProt entry, the sequences of proteins in these tests, tags left out. Where a name states a change or a piece, a line headed by the entry shows the natural chain unless it says otherwise.", "UniProt O08914, whole entry": "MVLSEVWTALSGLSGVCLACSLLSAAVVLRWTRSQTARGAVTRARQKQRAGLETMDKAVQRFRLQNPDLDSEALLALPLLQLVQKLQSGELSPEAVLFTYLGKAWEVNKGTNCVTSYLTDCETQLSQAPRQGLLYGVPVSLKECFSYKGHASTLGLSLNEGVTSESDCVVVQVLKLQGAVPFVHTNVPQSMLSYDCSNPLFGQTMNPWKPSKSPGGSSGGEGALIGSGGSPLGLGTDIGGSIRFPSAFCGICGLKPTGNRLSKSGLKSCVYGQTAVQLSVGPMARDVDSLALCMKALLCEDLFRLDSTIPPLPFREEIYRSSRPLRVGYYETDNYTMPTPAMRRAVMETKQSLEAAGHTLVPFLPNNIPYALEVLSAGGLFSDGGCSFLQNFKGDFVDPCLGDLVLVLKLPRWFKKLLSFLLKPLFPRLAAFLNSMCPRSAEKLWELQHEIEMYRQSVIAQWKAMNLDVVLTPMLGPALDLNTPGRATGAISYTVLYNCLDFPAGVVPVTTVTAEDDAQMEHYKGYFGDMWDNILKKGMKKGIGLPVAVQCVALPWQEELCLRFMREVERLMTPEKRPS", "UniProt Q8R2Y0": "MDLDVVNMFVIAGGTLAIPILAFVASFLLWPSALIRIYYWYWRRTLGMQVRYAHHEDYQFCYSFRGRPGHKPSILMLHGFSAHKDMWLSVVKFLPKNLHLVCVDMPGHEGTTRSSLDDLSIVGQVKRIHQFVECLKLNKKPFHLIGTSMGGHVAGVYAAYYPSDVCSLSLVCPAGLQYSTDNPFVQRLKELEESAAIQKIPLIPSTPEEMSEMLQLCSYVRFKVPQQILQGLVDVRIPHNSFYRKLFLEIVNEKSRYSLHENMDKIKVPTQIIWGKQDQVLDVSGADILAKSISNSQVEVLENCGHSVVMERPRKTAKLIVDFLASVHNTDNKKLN"}, "source": "patent US10781211B2", "about": "“Spirocycle compounds and methods of making and using same” (Lundbeck La Jolla Research Center, Inc., priority 2016, dated 2020)", "key": {"FAAH": {"target": "FAAH (Mus musculus (Mouse), UniProt O08914)", "assay": "Mouse brain proteomes from inhibitor treated mice (oral gavage, sacrifice 4 h after administration, ABPP analysis), FAAH", "assay_type": "in vivo", "details": "5 mg/kg oral gavage", "method": "(§1) Preparation of Mouse Brain Proteomes from Inhibitor Treated Mice.\n(§2) Inhibitors were administered to wild-type C57Bl/6J by oral gavage in a vehicle, e.g. PEG400/Ethanol/PBS (7/2/1). Each animal was sacrificed 4 h following administration and brain proteomes were prepared and analyzed according to previously established methods (See Niphakis, M. J., et al. (2011) ACS Chem. Neurosci. and Long, J. Z., et al. Nat. Chem. Biol. 5:37-44). Data from this assay is shown in Table 2 (% inhibition at 5 mg/kg)."}, "ABHD6": {"target": "ABHD6 (Mus musculus (Mouse), UniProt Q8R2Y0)", "assay": "Mouse brain proteomes from inhibitor treated mice (oral gavage, sacrifice 4 h after administration, ABPP analysis), ABHD6", "assay_type": "in vivo", "details": "5 mg/kg oral gavage", "method": "as §1, §2"}}, "note": "At least one structure is not confirmed: it was looked up by name or label, or the drawing left a doubt."}
{"molecule": "O=C(OC(C(F)(F)F)C(F)(F)F)N1CCC2(CCN(Cc3c(N4CC5COCC5C4)cccc3C(F)(F)F)C2)CC1", "note": "(centres unmarked) [Example 18, 1,1,1,3,3,3-Hexafluoropropan-2-yl 2-(2-(tetrahydro-1H-furo[3,4-c]pyrrol-5(3H)-yl)-6-(trifluoromethyl)benzyl)-2,8-diazaspiro[4.5]decane-8-carboxylate]", "values": [{"measurement": "FAAH % Inh 5 mg/kg (mouse)", "setting": "FAAH", "value": "# (# is < 25%)"}, {"measurement": "ABHD6 % Inh 5 mg/kg (mouse)", "setting": "ABHD6", "value": "# (# is < 25%)"}]}
